This data set in a line: peptide synthesis. Conditions: for cyclisation yield: cyclisation step.

Substance “(R)-1-(benzyloxy)-1-oxopropan-2-yl-N-methyl-N—((R)-2-((methyl-L-leucyl)oxy)-3-(4-morphol-inophenyl)propanoyl)-L-leucinate” yielded a step yield (late stage modification step) of 89.9%.
“(R)-1-(benzyloxy)-1-oxopropan-2-yl N-methyl-N-((6S,9R,12S,15R,18S,21R)-6,12,18-triiso-butyl-2,2,5,11,15,17-hexamethyl-9,21-bis(4-morpholinobenzyl)-4,7,10,13,16,19-hexaoxo-3,8,14,20-tetraoxa-5,11,17-triazadocosan-22-oyl)-L-leucinate”: the step yield (coupling step) is reported as 83.4%.
For the setting “late stage modification step”, “N-MeLeu-D-Lac-N-MeLeu-D-PhLac-N-MeLeu-D-Lac-N-MeLeu-D-PhLac-O-TAGa” yielded a step yield of 100%.
As to “(6S,9R,12S,15R)-6,12-diisobutyl-2,2,5,11,15-pentamethyl-9-(4-morpholinobenzyl)-4,7,10,13-tetraoxo-3,8,14-trioxa-5,11-diazahexadecan-16-oic acid”, the step yield (late stage modification step) came to 98.0%.
Regarding “(R)-1-(benzyloxy)-1-oxopropan-2-yl N—((R)-2-((N-(tert-butoxycarbonyl)-N-methyl-L-leucyl)oxy)-3-(4-morpholinophenyl)propanoyl)-N-methyl-L-leucinate”, the step yield (coupling step) is given as 97.4%.
For the substance “N-MeLeu-D-PhLac-N-MeLeu-D-Lac-N-MeLeu-D-PhLac-N-MeLeu-D-LacO-TAGa”, the step yield (late stage modification step) was 98%.
Same read-out and setting: the figure for “(R)-1-(benzyloxy)-1-oxopropan-2-yl N-((2R,5S,8R,11S,14R,17S)-5,11-diisobutyl-6,8,12,19-tetramethyl-17-(methylamino)-2,14-bis(4-morpholinobenzyl)-4,7,10,13,16-pentaoxo-3,9,15-trioxa-6,12-diazaicosanoyl)-N-methyl-L-leucinate” is 90.1%.
Take “(3S,6R,9S,12R,15S,18R,21S,24R)-3,9,15,21-tetraisobutyl-4,6,10,16,18,22-hexamethyl-12,24-bis(4-morpholinobenzyl)-1,7,13,19-tetraoxa-4,10,16,22-tetraazacyclotetracosan-2,5,8,11,14,17,20,23-octaone”: the cyclisation yield runs as follows: (2 steps (TAGa cleavage + cyclisation), run 1) 46% for 2 steps; (2 steps (TAGa cleavage + cyclisation), run 2) 44% for 2 steps; (run 1) 51.3%; (run 2) 88%. Besides, the step yield is, setting by setting: (late stage modification step, run 1) 100%; (late stage modification step, run 2) 94%.

These data come from patent US12122759 (dated 2024).
